Reference: article PMC8877233 (Molecules, 2022)

Test: general procedure: Fmoc solid-phase peptide synthesis; 2-chlorotrityl resin (2-CT resin); DIPCI/HOBt/DIPEA
Conditions: for cyclisation yield: cyclisation step; for step yield: late stage modification step; for crude mass / crude yield / isolated yield: whole synthesis; for crude yield: from resin loading; for crude yield / isolated yield: scale of the general procedure 81.6 µmol

## Cyclo-[Undecanoic Acid-Ser-Orn-D-Ser-D-Tyr-D-Asn-Gly-Asn-Ser-Asn]
  cyclisation yield: 16%
  step yield: 20%
  crude mass: 128 mg
  crude yield: 56%
Overall from resin loading
  isolated yield: 2%

## Cyclo-[Undecanoic Acid-Thr-(S)-7-D-Ser-D-Tyr-D-Asn-Gly-Asn-Ser-Asn]
  cyclisation yield: 45%
  step yield: 6%
  crude mass: 123 mg
  crude yield: 74%
Overall from resin loading
  isolated yield: 2%

## Cyclo-[Undecanoic Acid-Thr-(R)-7-D-Ser-D-Tyr-D-Asn-Gly-Asn-Ser-Asn]
  cyclisation yield: 67%
  step yield: 34%
  crude mass: 181 mg
Overall from resin loading
  isolated yield: 23%

## Cyclo-[Dodecanoic Acid-D-Ser-(R)-7-D-Ser-D-Tyr-D-Asn-Gly-Asn-Ser-Asn]
  cyclisation yield: 45%
  step yield: 37%
  crude mass: 160 mg
  crude yield: 96%
Overall from resin loading
  isolated yield: 16%

## Cyclo-[(2R,3R)-2,3-dihydroxy-4-(octylamino)-4-oxobutanoic Acid-(S)-7-D-Ser-D-Tyr-D-Asn-Gly-Asn-Ser-Asn]
  cyclisation yield: 26%
  step yield: 29%
  crude mass: 185 mg
Overall from resin loading
  isolated yield: 8%

## Cyclo-[Undecanoic Acid-Ser-(R)-7-D-Ser-D-Tyr-D-Asn-Gly-Asn-Ser-Asn]
  cyclisation yield: 34%
  step yield: 29%
Overall from resin loading
  isolated yield: 10%

## Cyclo-[(2R,3R)-2,3-dihydroxy-4-(octylamino)-4-oxobutanoic Acid-(R)-7-D-Ser-D-Tyr-D-Asn-Gly-Asn-Ser-Asn]
  step yield: 33%
Overall from resin loading
  isolated yield: 25%

## Cyclo-[Undecanoic Acid-D-Ser-(R)-7-D-Ser-D-Tyr-D-Asn-Gly-Asn-Ser-Asn]
  cyclisation yield: 25%
  step yield: 23%
Overall from resin loading
  isolated yield: 6%

## Cyclo-[Dodecanoic Acid-D-Ser-(S)-7-D-Ser-D-Tyr-D-Asn-Gly-Asn-Ser-Asn]
  cyclisation yield: 27%
  step yield: 23%
  crude mass: 195 mg
Overall from resin loading
  isolated yield: 6%

## Cyclo-[Dodecanoic Acid-Ser-(R)-7-D-Ser-D-Tyr-D-Asn-Gly-Asn-Ser-Asn]
  cyclisation yield: 42%
  step yield: 31%
Overall from resin loading
  isolated yield: 13%

## Cyclo-[Dodecanoic Acid-Ser-(S)-7-D-Ser-D-Tyr-D-Asn-Gly-Asn-Ser-Asn]
  cyclisation yield: 32%
  step yield: 12%
  crude mass: 195 mg
Overall from resin loading
  isolated yield: 4%

## Cyclo-[Dodecanoic Acid-Ser-Orn-D-Ser-D-Tyr-D-Asn-Gly-Asn-Ser-Asn]
  cyclisation yield: 33%
  step yield: 9%
  crude mass: 70.6 mg
  crude yield: 63%
Overall from resin loading
  isolated yield: 2%

## Cyclo-[Undecanoic Acid-D-Ser-(S)-7-D-Ser-D-Tyr-D-Asn-Gly-Asn-Ser-Asn]
  cyclisation yield: 45%
  step yield: 8%
Overall from resin loading
  isolated yield: 4%

## Cyclo-[Dodecanoic Acid-D-Ser-Orn-D-Ser-D-Tyr-D-Asn-Gly-Asn-Ser-Asn]
  cyclisation yield: 55%
  step yield: 11%
  crude mass: 144 mg
  crude yield: 86%
Overall from resin loading
  isolated yield: 5%

## Cyclo-[Undecanoic Acid-D-Ser-Orn-D-Ser-D-Tyr-D-Asn-Gly-Asn-Ser-Asn]
  cyclisation yield: 77%
  step yield: 5%
  isolated yield: 39%

## Cyclo-[Undecanoic Acid-Ser-(S)-7-D-Ser-D-Tyr-D-Asn-Gly-Asn-Ser-Asn]
On linear precursor
  cyclisation yield: 43%
Overall from resin loading
  isolated yield: 3%

## Cyclo-[(2R,3R)-2,3-Dihydroxy-4-(octylamino)-4-oxobutanoic Acid-Orn-D-Ser-D-Tyr-D-Asn-Gly-Asn-Ser-Asn]
  cyclisation yield: 49%
  step yield: 16%
  crude mass: 105 mg
  crude yield: 39%
Overall from resin loading
  isolated yield: 3%
